Test results reported in patent US20110182816A1.
No constants are given. Whether binding was seen depends on the method and setting. Some entries that bind do so weakly or less than the wild type.

The chains behind the UniProt entries cited, without tags or fusion partners. Where a name states a change or a piece, a line headed by the entry shows the natural chain unless it says otherwise.
UniProt P02749: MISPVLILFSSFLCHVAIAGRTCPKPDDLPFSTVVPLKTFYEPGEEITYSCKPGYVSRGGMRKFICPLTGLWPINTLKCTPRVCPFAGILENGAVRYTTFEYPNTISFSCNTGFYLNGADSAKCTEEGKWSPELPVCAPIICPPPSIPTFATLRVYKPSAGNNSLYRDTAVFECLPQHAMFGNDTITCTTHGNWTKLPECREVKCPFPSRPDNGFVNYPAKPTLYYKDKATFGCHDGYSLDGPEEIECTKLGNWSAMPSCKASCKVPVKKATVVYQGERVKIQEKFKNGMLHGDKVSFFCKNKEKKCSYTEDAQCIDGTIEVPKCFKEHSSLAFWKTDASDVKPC
UniProt P04114: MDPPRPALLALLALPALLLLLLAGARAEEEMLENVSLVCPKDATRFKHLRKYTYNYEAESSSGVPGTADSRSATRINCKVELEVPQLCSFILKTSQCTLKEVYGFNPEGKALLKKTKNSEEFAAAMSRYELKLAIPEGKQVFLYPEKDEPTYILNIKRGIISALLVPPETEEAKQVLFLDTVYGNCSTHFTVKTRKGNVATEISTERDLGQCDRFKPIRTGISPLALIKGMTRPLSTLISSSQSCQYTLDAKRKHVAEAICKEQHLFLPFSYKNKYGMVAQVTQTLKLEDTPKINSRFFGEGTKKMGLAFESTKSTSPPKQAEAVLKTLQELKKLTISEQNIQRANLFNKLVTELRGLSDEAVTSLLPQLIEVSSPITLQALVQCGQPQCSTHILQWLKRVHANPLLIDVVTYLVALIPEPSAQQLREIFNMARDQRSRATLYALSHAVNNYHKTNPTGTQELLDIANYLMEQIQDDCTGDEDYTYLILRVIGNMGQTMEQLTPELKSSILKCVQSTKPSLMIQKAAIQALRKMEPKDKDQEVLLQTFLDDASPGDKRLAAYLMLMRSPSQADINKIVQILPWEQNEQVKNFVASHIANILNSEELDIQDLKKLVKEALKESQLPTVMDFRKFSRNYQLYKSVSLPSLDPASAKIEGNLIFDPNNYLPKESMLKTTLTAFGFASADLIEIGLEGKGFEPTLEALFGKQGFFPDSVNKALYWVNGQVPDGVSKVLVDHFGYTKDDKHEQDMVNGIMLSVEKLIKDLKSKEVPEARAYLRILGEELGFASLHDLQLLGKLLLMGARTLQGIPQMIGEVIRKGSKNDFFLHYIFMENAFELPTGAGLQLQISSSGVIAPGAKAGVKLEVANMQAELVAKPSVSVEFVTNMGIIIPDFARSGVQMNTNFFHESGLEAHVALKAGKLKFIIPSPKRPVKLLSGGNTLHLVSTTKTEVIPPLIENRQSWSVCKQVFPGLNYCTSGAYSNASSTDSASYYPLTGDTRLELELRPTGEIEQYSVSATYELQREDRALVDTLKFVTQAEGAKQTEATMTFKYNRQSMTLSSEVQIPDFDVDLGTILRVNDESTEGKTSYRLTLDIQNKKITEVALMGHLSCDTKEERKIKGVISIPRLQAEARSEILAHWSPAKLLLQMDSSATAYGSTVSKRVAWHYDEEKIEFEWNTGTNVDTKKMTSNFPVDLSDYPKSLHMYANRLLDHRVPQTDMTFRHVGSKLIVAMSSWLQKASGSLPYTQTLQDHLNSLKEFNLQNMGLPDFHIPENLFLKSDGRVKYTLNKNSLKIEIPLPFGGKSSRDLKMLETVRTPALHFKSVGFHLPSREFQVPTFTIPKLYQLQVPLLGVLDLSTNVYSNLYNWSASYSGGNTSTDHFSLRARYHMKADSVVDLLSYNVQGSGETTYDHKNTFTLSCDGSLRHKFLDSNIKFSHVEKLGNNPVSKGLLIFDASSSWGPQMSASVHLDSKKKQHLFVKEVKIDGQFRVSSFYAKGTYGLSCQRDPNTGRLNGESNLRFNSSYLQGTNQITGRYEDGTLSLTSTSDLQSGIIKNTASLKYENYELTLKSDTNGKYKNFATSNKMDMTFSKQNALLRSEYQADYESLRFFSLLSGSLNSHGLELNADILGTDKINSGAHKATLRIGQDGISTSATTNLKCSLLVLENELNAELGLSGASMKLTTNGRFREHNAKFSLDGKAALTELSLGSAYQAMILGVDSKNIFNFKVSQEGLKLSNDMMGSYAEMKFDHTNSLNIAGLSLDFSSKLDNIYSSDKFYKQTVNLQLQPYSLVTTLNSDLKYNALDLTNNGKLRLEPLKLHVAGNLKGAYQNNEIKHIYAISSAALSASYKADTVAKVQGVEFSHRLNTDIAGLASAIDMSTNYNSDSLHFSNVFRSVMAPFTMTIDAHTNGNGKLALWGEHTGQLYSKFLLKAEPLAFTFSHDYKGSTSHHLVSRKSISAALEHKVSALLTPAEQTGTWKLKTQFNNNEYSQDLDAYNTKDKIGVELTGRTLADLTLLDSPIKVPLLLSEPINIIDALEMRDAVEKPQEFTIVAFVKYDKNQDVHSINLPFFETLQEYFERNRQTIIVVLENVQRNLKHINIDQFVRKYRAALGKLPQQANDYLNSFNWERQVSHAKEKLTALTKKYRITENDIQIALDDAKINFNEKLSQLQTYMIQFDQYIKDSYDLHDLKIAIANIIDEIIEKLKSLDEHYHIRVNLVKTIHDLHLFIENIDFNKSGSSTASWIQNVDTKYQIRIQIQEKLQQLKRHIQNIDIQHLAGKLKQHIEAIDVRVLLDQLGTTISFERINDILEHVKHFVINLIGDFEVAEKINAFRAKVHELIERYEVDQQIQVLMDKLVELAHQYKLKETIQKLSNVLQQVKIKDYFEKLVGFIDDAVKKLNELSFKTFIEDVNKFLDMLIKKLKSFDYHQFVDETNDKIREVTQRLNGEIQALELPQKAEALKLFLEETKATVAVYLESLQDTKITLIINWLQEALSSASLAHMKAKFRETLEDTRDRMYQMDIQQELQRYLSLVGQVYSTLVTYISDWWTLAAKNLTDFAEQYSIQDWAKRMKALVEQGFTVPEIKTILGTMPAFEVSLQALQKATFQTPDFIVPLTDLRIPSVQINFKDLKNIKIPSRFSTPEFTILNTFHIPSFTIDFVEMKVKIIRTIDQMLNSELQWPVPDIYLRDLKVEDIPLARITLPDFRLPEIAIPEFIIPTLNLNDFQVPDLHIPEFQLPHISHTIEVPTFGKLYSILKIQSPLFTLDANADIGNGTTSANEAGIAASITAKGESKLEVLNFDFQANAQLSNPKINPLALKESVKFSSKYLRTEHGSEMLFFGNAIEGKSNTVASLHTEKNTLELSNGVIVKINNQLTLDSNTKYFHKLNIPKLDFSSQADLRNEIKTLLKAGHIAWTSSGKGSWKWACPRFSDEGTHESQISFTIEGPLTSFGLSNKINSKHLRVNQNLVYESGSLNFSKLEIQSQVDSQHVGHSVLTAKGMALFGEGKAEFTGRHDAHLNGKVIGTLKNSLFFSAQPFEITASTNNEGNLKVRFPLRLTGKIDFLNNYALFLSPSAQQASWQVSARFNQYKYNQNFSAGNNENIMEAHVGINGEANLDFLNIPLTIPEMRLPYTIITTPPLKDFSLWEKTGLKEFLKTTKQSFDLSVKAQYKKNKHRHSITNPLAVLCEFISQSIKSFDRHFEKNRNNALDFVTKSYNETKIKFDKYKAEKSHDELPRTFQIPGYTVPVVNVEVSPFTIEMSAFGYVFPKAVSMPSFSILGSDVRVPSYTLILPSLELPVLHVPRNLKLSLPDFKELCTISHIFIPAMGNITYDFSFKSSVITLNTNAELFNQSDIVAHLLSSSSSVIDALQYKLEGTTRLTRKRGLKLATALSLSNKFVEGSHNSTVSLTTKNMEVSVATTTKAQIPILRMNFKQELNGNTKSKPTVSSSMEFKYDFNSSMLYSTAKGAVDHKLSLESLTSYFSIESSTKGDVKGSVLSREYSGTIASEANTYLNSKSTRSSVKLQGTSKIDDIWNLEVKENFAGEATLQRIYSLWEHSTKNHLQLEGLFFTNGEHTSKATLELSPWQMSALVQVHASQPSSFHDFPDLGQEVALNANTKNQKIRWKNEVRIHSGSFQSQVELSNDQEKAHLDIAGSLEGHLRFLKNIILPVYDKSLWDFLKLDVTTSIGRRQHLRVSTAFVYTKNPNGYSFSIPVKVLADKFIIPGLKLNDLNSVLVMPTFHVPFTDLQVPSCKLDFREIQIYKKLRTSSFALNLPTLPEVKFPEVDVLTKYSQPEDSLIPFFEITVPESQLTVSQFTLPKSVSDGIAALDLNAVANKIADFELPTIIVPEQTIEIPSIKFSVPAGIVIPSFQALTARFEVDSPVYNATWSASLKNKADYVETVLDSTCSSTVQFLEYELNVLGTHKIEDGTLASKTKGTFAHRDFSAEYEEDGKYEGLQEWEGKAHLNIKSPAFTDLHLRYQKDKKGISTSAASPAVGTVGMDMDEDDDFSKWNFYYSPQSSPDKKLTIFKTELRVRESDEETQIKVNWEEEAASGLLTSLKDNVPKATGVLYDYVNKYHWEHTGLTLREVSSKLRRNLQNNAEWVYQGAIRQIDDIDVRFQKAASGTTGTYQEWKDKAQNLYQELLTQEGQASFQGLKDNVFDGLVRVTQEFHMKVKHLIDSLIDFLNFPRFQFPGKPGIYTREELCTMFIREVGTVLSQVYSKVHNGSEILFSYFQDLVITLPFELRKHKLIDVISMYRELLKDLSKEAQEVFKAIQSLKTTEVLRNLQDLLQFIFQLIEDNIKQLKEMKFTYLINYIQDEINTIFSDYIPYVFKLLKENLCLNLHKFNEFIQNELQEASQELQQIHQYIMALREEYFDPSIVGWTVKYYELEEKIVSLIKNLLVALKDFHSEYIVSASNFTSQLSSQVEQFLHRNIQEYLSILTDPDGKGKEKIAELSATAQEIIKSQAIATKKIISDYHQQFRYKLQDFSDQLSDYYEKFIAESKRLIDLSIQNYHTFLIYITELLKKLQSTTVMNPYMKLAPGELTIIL

How the values were obtained:
[1] = target: T1, human oxidized LDL/β2GPI complex (human) (UniProt P02749+P04114); assay: inhibition ELISA with free antigen
[2] = target: T1, human oxidized LDL/β2GPI complex (human); assay: ELISA, antibody on immobilized oxidized LDL/β2GPI complex
[3] = target: T1, human oxidized LDL/β2GPI complex (human); assay: hybridoma screening ELISA on coated oxidized LDL/β2GPI complex
[4] = target: T1, human oxidized LDL/β2GPI complex (human); assay: competitive inhibition ELISA with free antigen (FIG. 3)
[5] = target: T1, human oxidized LDL/β2GPI complex (human); assay: competitive inhibition ELISA, free oxidized LDL/β2GPI complex as competitor against immobilized oxidized LDL/β2GPI (grade of inhibition)
[6] = target: T1, human oxidized LDL/β2GPI complex (human); assay: ELISA, plate coated with 1 µg/ml oxidized LDL/β2GPI
[7] = target: T1, human oxidized LDL/β2GPI complex (human); assay: competitive inhibition ELISA, free oxidized LDL/β2GPI complex as competitor

Measured: binding

B1: antibody 3H3 (antibody, IgG2b, V domains shown)
VH: EVQLVESGGGLVKPGGSLKLSCAASGFTFSSYAMSWARQTPEKRLEWVATISSGGSYTYYPDSVRGRFTISRDNAKNTLYLQMCSLRSEDTAMYYCARFDGYYAMDYWGQGTSVTVSS
VL: DIVMTQSHKFMSTSVGDRVSITCKASQDVGSAVAWYQQKPGQSPKLLIYWASTRHTGVPDRFTGSGSGTDFTLTISSLQSEDLADYFCQQYSSYPLTFGSGTKLEIK
binds: [1] | [2] | [3] | [4] | [5] | [6] | [7]
